The list shows a part of the results. Single values are uncertain, as repeats are few or missing.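 The apoptosis fraction was the count of cleaved-PARP antibody-stained nuclei relative to all DNA-stained nuclei, imaged in 1,536-well plates. Screening doses were set so most cells survived, and baseline and induced cleaved-PARP levels vary greatly across cell lines.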

The assay has as its system UACC257. Nature of the assay: cleaved PARP positive nuclei fraction relative to DMSO control; melanoma cells; higher = more apoptosis. Conditions: library dose: low library concentration; 72 h.
Consider `C=CCn1c(=O)c2cnc(Nc3ccc(N4CCN(C)CC4)cc3)nc2n1-c1cccc(C(C)(C)O)n1` + CCCCCCCCCCCC1=C(O)C(=O)C=C(O)C1=O [Embelin] (first compound 0.02 µM, partner dose 1.2 µM), for which the “cleaved PARP positive nuclei fraction” value was 179%.
For `Cc1cc(N2CCOCC2)cc2[nH]c(-c3c(NC[C@@H](O)c4cccc(Cl)c4)cc[nH]c3=O)nc12` + COc1ccc(-c2ccc3c(N4CCOCC4)nc(N4C[C@@H](C)O[C@@H](C)C4)nc3n2)cc1CO [KU0063794] (first compound 0.2 µM, partner dose 0.02 µM) the value was 149%.
In the case of `COCC[n+]1c2c(n(Cc3cnccn3)c1C)C(=O)c1ccccc1C2=O` + O=C1NC(=O)/C(=C/c2ccc(-c3ccc(F)cc3O)o2)S1 [AS252424] (first compound 0.0004 µM, partner dose 1 µM) it was 51.5%; in that of `Cn1nnc2c(C(N)=O)ncn2c1=O` [temozolomide] + CCc1ccc(CCOc2ccc(CC3SC(=O)NC3=O)cc2)nc1 [pioglitazone] (first compound 2 µM, partner dose 2 µM), 81.4%.
For `C#Cc1cccc(Nc2ncnc3cc(OCCOC)c(OCCOC)cc23)c1` [erlotinib] + Oc1cc(-c2nc(-c3ccccc3)[nH]c2-c2ccncc2)ccc1Cl [L779450] (first compound 0.8 µM, partner dose 0.2 µM) the value was 125%; for `Cc1ccc(NC(=O)c2cccc(N(C)C)c2)cc1NC(=O)c1ccc(O)cc1` + CCN(CC)CCCCNc1ncc2cc(-c3cc(OC)cc(OC)c3)c(NC(=O)NC(C)(C)C)nc2n1 [PD173074] (first compound 2 µM, partner dose 0.1 µM), 136%; for `Cn1cncc1[C@@](N)(c1ccc(Cl)cc1)c1ccc2c(c1)c(-c1cccc(Cl)c1)cc(=O)n2C` [tipifarnib] + CCCCCCCCCCCC1=C(O)C(=O)C=C(O)C1=O [Embelin] (first compound 0.01 µM, partner dose 1.2 µM), 124%.
Regarding `O=C(CCCCCCC(=O)Nc1ccccc1)NO` [vorinostat] + c1cc(-c2cnn3cc(-c4ccc(OCCN5CCCCC5)cc4)cnc23)ccn1 [Dorsomorphin] (first compound 0.08 µM, partner dose 0.4 µM), the “cleaved PARP positive nuclei fraction” value is 140%.
`NC(=O)Nc1cc(-c2cccc(F)c2)sc1C(=O)N[C@H]1CCCNC1` + COC(=O)c1sccc1S(=O)(=O)Nc1ccc(Nc2ccccc2)cc1OC [GSK0660] (first compound 0.02 µM, partner dose 1 µM): the “cleaved PARP positive nuclei fraction” value came out at 82.1%.
For `Cc1nc(Nc2ncc(C(=O)Nc3c(C)cccc3Cl)s2)cc(N2CCN(CCO)CC2)n1` [dasatanib] + Oc1nc(-c2ccc(C(F)(F)F)cc2)nc2c1CSCC2 [XAV939] (first compound 0.004 µM, partner dose 2 µM) the value was 210%; for `Cn1cncc1[C@@](N)(c1ccc(Cl)cc1)c1ccc2c(c1)c(-c1cccc(Cl)c1)cc(=O)n2C` [tipifarnib] + Oc1cc(-c2nc(-c3ccccc3)[nH]c2-c2ccncc2)ccc1Cl [L779450] (first compound 0.01 µM, partner dose 0.2 µM), 218%.
On to `O=C(CCCCCCC(=O)Nc1ccccc1)NO` [vorinostat] + COc1ccc(COc2ccc(Cc3cnc(N)nc3N)cc2OC)cc1 [GW2580] (first compound 0.08 µM, partner dose 1 µM), for which the “cleaved PARP positive nuclei fraction” value turned out to be 76.1%.
In the case of `O=C(CCCCCCC(=O)Nc1ccccc1)NO` [vorinostat] + COc1cc(N2CCC(N3CCN(C)CC3)CC2)ccc1Nc1ncc(Cl)c(Nc2ccccc2S(=O)(=O)C(C)C)n1 [NVP-TAE684] (first compound 0.08 µM, partner dose 0.08 µM) it was 218%; in that of `OCCn1cc(-c2cnc3nnn(Cc4ccc5ncccc5c4)c3n2)cn1` + Oc1nc(-c2ccc(C(F)(F)F)cc2)nc2c1CSCC2 [XAV939] (first compound 1 µM, partner dose 2 µM), 110%; in that of `Cn1nnc2c(C(N)=O)ncn2c1=O` [temozolomide] + COc1ccc(COc2ccc(Cc3cnc(N)nc3N)cc2OC)cc1 [GW2580] (first compound 2 µM, partner dose 1 µM), 146%.
In the case of `C=CCn1c(=O)c2cnc(Nc3ccc(N4CCN(C)CC4)cc3)nc2n1-c1cccc(C(C)(C)O)n1` + COc1ccc(COc2ccc(Cc3cnc(N)nc3N)cc2OC)cc1 [GW2580] (first compound 0.02 µM, partner dose 1 µM) it was 168%.

Values taken from the supplement of paper PMC4604168 (melanoma cell lines).
